In assay [1] the target is poly (ADP-ribose) polymerase 1 (UniProt P09874). Nature of the assay: SPR; Biacore X-100, 25 °C, CM5 chip; polβ and the ligases with XRCC1 and PARP1 (Fig. S3); 10 mM Hepes pH 7.4, 150 mM NaCl, 3 mM EDTA, 0.005% P20; both purified.
In assay [2] the target is GST-tag APE1 full-length (apurinic/apyrimidinic-endonuclease 1) (UniProt P27695). The experiment in a line: SPR; GST-tag polβ or APE1 immobilised on CM5 chip (EDC/NHS), his-tag LIG1 or LIGIIIα passed as analyte; Biacore X-100, 25 °C; 10 mM Hepes pH 7.4, 150 mM NaCl, 3 mM EDTA, 0.005% surfactant P20; 1:1 (Langmuir) fit; both purified.
Assay [3] addresses Apurinic/apyrimidinic-endonuclease 1 (UniProt P27695). The experiment in a line: SPR; Biacore X-100, 25 °C; GST-tag polβ or APE1 immobilised on CM5 chip (EDC/NHS, 10 mM sodium acetate pH 4.0), his-tag LIG1 or LIGIIIα proteins as analytes; 10 mM Hepes pH 7.4, 150 mM NaCl, 3 mM EDTA, 0.005% P20; 1:1 (Langmuir) model; polβ truncated mutants (Fig. S2) tested likewise, orientation not given; both purified.

By UniProt entry, the sequences of proteins in these tests, tags left out.
UniProt P09874: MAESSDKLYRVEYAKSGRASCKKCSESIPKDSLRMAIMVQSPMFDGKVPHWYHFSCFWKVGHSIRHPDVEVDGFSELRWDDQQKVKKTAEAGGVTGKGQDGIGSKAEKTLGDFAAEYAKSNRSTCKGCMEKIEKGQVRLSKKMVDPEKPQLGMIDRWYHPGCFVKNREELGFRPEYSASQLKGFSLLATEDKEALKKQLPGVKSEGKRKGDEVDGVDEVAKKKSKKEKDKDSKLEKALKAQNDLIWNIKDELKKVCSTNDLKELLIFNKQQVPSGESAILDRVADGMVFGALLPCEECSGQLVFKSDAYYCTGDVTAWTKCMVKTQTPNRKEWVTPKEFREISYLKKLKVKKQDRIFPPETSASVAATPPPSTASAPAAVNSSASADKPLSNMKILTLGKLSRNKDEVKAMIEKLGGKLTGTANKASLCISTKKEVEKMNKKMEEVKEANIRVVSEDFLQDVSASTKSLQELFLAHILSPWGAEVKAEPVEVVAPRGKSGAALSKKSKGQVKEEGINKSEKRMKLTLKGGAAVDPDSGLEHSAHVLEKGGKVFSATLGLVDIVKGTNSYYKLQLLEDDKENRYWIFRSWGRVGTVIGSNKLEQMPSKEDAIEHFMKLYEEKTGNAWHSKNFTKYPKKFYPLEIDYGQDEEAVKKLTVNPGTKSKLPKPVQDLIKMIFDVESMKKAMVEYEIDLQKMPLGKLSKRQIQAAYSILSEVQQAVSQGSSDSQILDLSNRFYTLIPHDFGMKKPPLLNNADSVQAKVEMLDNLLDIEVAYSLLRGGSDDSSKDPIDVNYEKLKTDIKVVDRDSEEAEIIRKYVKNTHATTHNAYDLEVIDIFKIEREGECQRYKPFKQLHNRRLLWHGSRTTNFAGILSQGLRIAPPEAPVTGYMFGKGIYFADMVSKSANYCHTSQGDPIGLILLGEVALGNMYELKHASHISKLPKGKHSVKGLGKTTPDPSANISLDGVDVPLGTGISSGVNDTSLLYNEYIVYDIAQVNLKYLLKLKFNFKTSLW
UniProt P27695: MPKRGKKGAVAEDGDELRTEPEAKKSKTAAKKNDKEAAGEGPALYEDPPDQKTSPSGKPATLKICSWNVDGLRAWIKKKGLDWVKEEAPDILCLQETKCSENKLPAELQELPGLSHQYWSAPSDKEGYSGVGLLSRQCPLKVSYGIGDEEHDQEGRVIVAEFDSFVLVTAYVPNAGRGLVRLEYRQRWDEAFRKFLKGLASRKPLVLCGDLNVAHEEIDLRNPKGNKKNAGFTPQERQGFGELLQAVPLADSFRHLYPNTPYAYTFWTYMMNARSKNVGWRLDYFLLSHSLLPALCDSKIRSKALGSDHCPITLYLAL

These are yes or no findings as the source states them, for the method shown. Some results given as binding are weak or reduced against the parent protein; the word gives no strength.

The text below walks through data of paper PMC11176775.

Turning to “DNA ligase 1 full-length (1–919 amino acids) (from UniProt P18858 1-919) (enzyme)”, the binding result in assay [1] was “binds”.
Regarding “LIG1△N-terminal (262–919 amino acids), C-terminal catalytic region of LIG1 (from UniProt P18858 262-919) (domain or fragment)”, the binding entry in assay [2] is on record as “no binding”.
For the substance “LIG1▵C-terminal (1–262 amino acids) (from UniProt P18858 1-262) (domain or fragment)”, the binding result in assay [3] is “binds”.
In the case of “LIG1▵N-terminal (262–919 amino acids) (from UniProt P18858 262-919) (domain or fragment)”, the binding entry in assay [3] was “no binding”.
